Results: the supplement of paper PMC12823440, “Inhibitors supercharge kinase turnover through native proteolytic circuits” (Nature, 2025)
Structures can show the parent of a compound that is named as a salt. The list shows a part of the results. Hit calls seldom repeat between salt and free forms of one compound.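 Kinases were expressed as nanoluciferase fusions in K562 cells and luminescence was read every 4 h between 2 and 18 h as percent of control, DMSO set to 100% and a positive control to 0%. A time point counts as decreased when the signal drops significantly (2 sigma). The hit call is the authors' own, does not follow from the count of time points alone, and its rule is not shown.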

Sequences of proteins named here, by UniProt entry; tags and fusion partners are left off.
UniProt Q9Y463, whole entry, looked up: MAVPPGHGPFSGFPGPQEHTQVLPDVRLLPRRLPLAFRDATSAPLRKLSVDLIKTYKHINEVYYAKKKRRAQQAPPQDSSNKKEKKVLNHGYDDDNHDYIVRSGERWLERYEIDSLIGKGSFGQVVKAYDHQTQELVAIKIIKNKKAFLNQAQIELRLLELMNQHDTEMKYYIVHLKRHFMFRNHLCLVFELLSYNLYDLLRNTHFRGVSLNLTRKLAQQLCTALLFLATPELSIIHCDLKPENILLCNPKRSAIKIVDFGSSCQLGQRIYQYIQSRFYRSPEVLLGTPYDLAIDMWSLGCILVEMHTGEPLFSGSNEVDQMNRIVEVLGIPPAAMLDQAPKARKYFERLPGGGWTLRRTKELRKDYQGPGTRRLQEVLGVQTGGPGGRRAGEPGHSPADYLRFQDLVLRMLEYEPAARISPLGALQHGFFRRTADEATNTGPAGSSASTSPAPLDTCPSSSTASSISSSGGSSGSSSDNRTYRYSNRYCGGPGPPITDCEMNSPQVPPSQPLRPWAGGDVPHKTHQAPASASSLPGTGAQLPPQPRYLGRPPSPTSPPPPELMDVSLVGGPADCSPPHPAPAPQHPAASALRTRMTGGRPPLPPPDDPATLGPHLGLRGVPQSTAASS

Target: DYRK1B (UniProt Q9Y463)
Test: number of time points (of 5) at which kinase-Nluc abundance scored as decreased, DMSO-normalised (count); higher = more persistent destabilization
Details: K562; 2-18 h

SMILES | number of time points
O=C1NC(=O)C(c2cn(-c3ccccc3)nc2-c2ccc(F)cc2)N1 (centres undefined) (10 µM) | 0
O=[N+]([O-])c1ccc(Sc2cccc[n+]2[O-])c2nonc12 (2.5 µM) | 0
COc1nc(-c2ccnc(NC(=O)C3CC3)c2)sc1C(N)=O [GSK-3β inhibitor 2] (10 µM) | 0
CCN1/C(=C/C(C)=O)Sc2ccc(OC)cc21 (10 µM) | 0
Nc1cccc(S(=O)(=O)N2CCCN(S(=O)(=O)c3ccc4c(c3)OCCO4)CC2)c1 (10 µM) | 0
Nc1ncc(-c2ccc(C(=O)N3CCNCC3)cc2)nc1-c1ccc(C(F)(F)F)cc1 (10 µM) | 0
CC[C@H](Nc1ncnc2[nH]cnc12)c1oc2ccccc2c(=O)c1-c1cccc(F)c1 [Tenalisib] (10 µM) | 0
CC(C)(O)[C@@H]1CC[C@](C)([C@H]2[C@@H](O)C[C@@]3(C)[C@@H]4C[C@H](O[C@@H]5O[C@H](CO)[C@@H](O)[C@H](O)[C@H]5O)[C@H]5C(C)(C)[C@@H](O[C@@H]6OC[C@@H](O)[C@H](O)[C@H]6O[C@@H]6O[C@H](CO)[C@@H](O)[C@H](O)[C@H]6O)CC[C@@]56C[C@@]46CC[C@]23C)O1 [Astragaloside VI] (10 µM) | 0
CC(=O)Nc1nc2ccc(-c3cnc(C)c(NC(=O)OC4CCCCC4)c3)cc2s1 (10 µM) | 0
COc1ccccc1/C=C1\C(=O)Nc2ccccc21 (10 µM) | 0
CC1(N)CCN(c2cnc3c(-c4cccc(Cl)c4Cl)[nH]nc3n2)CC1 (2.5 µM) | 0
CC(C)C[C@H](NC(=O)[C@H](CCCCN)NC(=O)[C@H](CO)NC(=O)[C@@H](N)CC(C)C)C(N)=O [LSKL, Inhibitor of Thrombospondin (TSP-1) (TFA)] (10 µM) | 0
CN1CC[C@H](c2c(O)cc(O)c3c(=O)cc(-c4ccc(C(F)(F)F)cc4Cl)oc23)[C@H]1CO [(2S,3R)-Voruciclib (hydrochloride)] (2.5 µM) | 0
C[C@H]1[C@H](OC(=O)CCC(=O)O)O[C@@H]2O[C@@]3(C)CC[C@H]4[C@H](C)CC[C@@H]1[C@@]24OO3 [Artesunate] (2.5 µM) | 0
c1ccc(-c2nn3c(c2-c2ccnc4cc(OCCN5CCOCC5)ccc24)CCC3)nc1 (10 µM) | 0
COc1cc(N2CCC(N(C)C)CC2)ccc1Nc1ncc(Cl)c(Nc2ccccc2P(C)(C)=O)n1 (2.5 µM) | 0
Cc1ccc(-c2ncn(-c3ccc(Nc4nccc(-c5cccc(N6CCOCC6)c5)n4)cc3)n2)cn1 (10 µM) | 0
CC[C@@H]1[C@H](F)C(=O)N[C@@H]1COc1nccc2cc(C(N)=O)c(OC)cc12 (10 µM) | 0
O=C1NC(=O)/C(=C/c2ccc(-c3ccc(F)cc3O)o2)S1 (10 µM) | 0
Cc1cc(Nc2cc(CN3CCOCC3)c3nc(C)c(Cc4ccc(Cl)cc4F)n3n2)n[nH]1 [Gandotinib] (2.5 µM) | 0

SMILES | number of time points
CN(C)C(=O)c1ccc(S(=O)(=O)c2ccc(NC(=O)[C@@](C)(O)C(F)(F)F)c(Cl)c2)cc1 (10 µM) | 0
CCc1cccc(CC)c1NC(=O)c1nn(C)c2c1CCc1cnc(Nc3ccc(C(=O)NC4CCN(C)CC4)cc3OC(F)(F)F)nc1-2 (2 µM) | 0
O=C(Nc1ccc(Cl)cc1)C1CCCN(C(=O)c2cccc(-c3ccco3)c2)C1 (centres undefined) (2.5 µM) | 0
CN(C)Cc1cccc(N=C(c2ccccc2)c2c(O)[nH]c3cc(C(=O)N(C)C)ccc23)c1 (10 µM) | 0
OCCN(CCO)c1ccc(C(c2ccc(Cl)cc2)c2ccc(N(CCO)CCO)cc2)cc1 (10 µM) | 2
CCOc1ccccc1C=C1C(=O)Nc2ccccc21 (10 µM) | 0
COc1ncc(Nc2ncc([C@@H](C)N3CCN(S(C)(=O)=O)CC3)cc2-c2nc(C)nc(N)n2)cc1F (10 µM) | 0
O=C(CO)N1CCC(c2n[nH]c(-c3ccc(Cl)cc3)c2-c2ccncn2)CC1 (10 µM) | 0
Cn1ncc(Cl)c1-c1cc(C(=O)N[C@H](CN)Cc2ccc(F)c(F)c2)sc1Cl (10 µM) | 0
O=c1ccc2ccc(O)c(O)c2o1 [Daphnetin] (10 µM) | 0
O=C(Nc1ccc(Cl)c(Cl)c1)Nc1ccc2nnsc2c1 (10 µM) | 0
O=C(O)c1cc(O)c2c(c1)[C@@H]([C@H]1c3cc(C(=O)O)cc(O)c3C(=O)c3c(O[C@@H]4O[C@H](CO)[C@@H](O)[C@H](O)[C@H]4O)cccc31)c1cccc(O[C@@H]3O[C@H](CO)[C@@H](O)[C@H](O)[C@H]3O)c1C2=O [Sennoside B] (2.5 µM) | 0
O=c1nc(N2CCOCC2)oc2c(-c3cccc4c3sc3ccccc34)cccc12 (10 µM) | 0
O=C(Nc1cccc(-c2nncn2C2CC2)c1)c1cc(-n2cnc(C3CC3)c2)ccn1 (10 µM) | 0
CSc1ccc(CN2CCCC(Nc3ccc4[nH]ncc4c3)C2)cc1 (centres undefined) [Rho-Kinase-IN-1] (10 µM) | 0
Oc1ccccc1C(=S)N1CCCC1 (10 µM) | 0
COC(=O)N[C@@H](C)CNc1nccc(-c2cn(C(C)C)nc2-c2cc(Cl)cc(NS(C)(=O)=O)c2F)n1 [Encorafenib] (10 µM) | 0
C=CS(=O)(=O)c1ccc(Nc2nc(OCC3CCCCC3)c3[nH]cnc3n2)cc1 (2.5 µM) | 0
O=c1[nH]ccc2cc(OC3CCNCC3)ccc12 (10 µM) | 0
